The labels stand for the following.
B1: Fab complex #47 (Fab, V domains shown)
VH: DAELVKPGASVKISCKASGYTFTDHSIHWVQQKPEQGLEWIGYISPGNGNIKYNEKFKGKATLTADKSSSTAYMQLNSLTSEDSAVYFCKRSLGRGGPYYFDYWGQGTTVTVSS
VL: DIVLTQAAPSLPVTPGESVSISCRSSKSLLHSNGNTYLYWFLQRPGQSPQLLIYRMSNLASGVPDRFSGSGSGTAFTLRISRVEAEDVGVYYCMQHREYPVTFGSGPN
B2: humanized antibody complex #47 (antibody, human IgG1, V domains shown)
VH: B1 VH
VL: B1 VL
B3: Fab complex #46 (Fab, V domains shown)
VH: GAELVRSGASVKMSCKASGYSFTDYNMYWVKQTPGQGLEWIGYIYPGNGGTNYNQKFKGKATLTADTSSSTAYMQISSLTSEDSAVYFCARDYDDGGYAMDYWGQGTTVTVSS
VL: DIQMTQSPASLSASVGETVTITCRASGNIHNYLTWYQQKQGKSPQLLVYNAKTLADGVPSRFSGSGSGTQYSLKINRLQPEDFGSYYCQHFWNIPWTFGGGTKLNSR
B4: humanized antibody complex #46 (antibody, human IgG1, V domains shown)
VH: B3 VH
VL: B3 VL
B5: F(ab')2 complex #13 (protein)
VH: B3 VH
VL: B3 VL
B6: F(ab')2 complex #46 (protein)
VH: B3 VH
VL: B3 VL
B7: Fab complex #40 (Fab, V domains shown)
VH: EVQLVESGGGLVQPGGSLRLSCAASGFSLSSHSLGWVRQAPGKGLEWIGDIRSGGSAYYANWAKGRFTISRDNSKNTLYLQMNSLRAEDTAVYYCTRTNGPSDLTNRLDLWGQGTLVTVSS
VL: EIVLTQSPSSLSASVGDRVTINCQASQSLYNNENLAWFQQKPGKVPKRLIYGASTLASGVSSRFSGSGSGTEFTLTISNLQPEDFATYYCLGEFSCGSADCFAFGGGTKVEIK
B8: humanized antibody complex #41 (antibody, human IgG1, V domains shown)
VH: B7 VH with Y94F
VL: B7 VL with I2Q, T87I
B9: Fab complex #71 (Fab, V domains shown)
VH: B7 VH
VL: B7 VL with I2Q, T87I
B10: Fab complex #69 (Fab, V domains shown)
VH: B7 VH
VL: QVLTQSPSSLSASVGDRVTINCQASQSLYNNENLAWFQQKPGKVPKRLIYGASTLASGVSSRFSGSGSGTEFTLTISSLQCEDFAIYYCLGEFSCGSADCFAFGGGTKVEIK
B11: F(ab')2 complex #37 (protein)
VH: B7 VH with Y94F
VL: B10 VL
B12: humanized antibody complex #39 (antibody, human IgG1, V domains shown)
VH: B7 VH with Y94F
VL: B7 VL
B13: F(ab')2 complex #41 (protein)
VH: B7 VH with Y94F
VL: B7 VL with I2Q, T87I
B14: Fab complex #41 (Fab, V domains shown)
VH: B7 VH with Y94F
VL: B7 VL with I2Q, T87I
B15: Fab complex #72 (Fab, V domains shown)
VH: B7 VH with Y94F
VL: B7 VL
B16: Fab complex #73 (Fab, V domains shown)
VH: B7 VH
VL: B7 VL
B17: humanized antibody complex #40 (antibody, human IgG1, V domains shown)
VH: B7 VH
VL: B7 VL
B18: F(ab')2 complex #36 (protein)
VH: B7 VH
VL: B10 VL
B19: F(ab')2 complex #38 (protein)
VH: B7 VH
VL: B7 VL with I2Q, T87I
B20: Fab complex #74 (Fab, V domains shown)
VH: B7 VH with Y94F
VL: B7 VL with I2Q, T87I
B21: F(ab')2 complex #39 (protein)
VH: B7 VH with Y94F
VL: B7 VL
B22: F(ab')2 complex #40 (protein)
VH: B7 VH
VL: B7 VL
B23: Fab complex #70 (Fab, V domains shown)
VH: B7 VH with Y94F
VL: B10 VL
B24: Fab complex #63 (Fab, V domains shown)
VH: GPDLVKPGASVKISCKASGYSFTAYYMHWVKQSHGKSLEWIGRVNPNNGGTTYNQKFKGKAILTVDKSSSTAYMELRSLTFEDSAVYYCARRIYYGYFDYWGQGTTVTVSS
VL: AFFAVSLGQRATISCKASQSVDYDGDSYMNWYQQKPGQPPKLLIYVASNLESGVPARFSGSGSGTDFTLNIHPVEEEDAATYYCQQSNEDPYTFGGGTKLEIKQ
B25: Fab complex #42 (Fab, V domains shown)
VH: AVTLDESGGGLQTPGGALSLVCKASGFTFSGYDMLWVRQAPGKGLEWVAGIGSTGGGTDYGAAVKGRATISRDNGQSTVRLQLNNLRAEDTATYYCAKVAGGCNSGYCRDSPGSIDAWGHGTEVIVS
VL: AVTQQPASVSANPGETVKITCSGGGSRNYYGWYQQKSPGSVPVTVIYYDDQRPSNIPSRFSGALSGSTSTLTITGVQADDEAVYFCGSADSNTYEGSFGAGTTLTVL
B26: humanized antibody complex #42 (antibody, human IgG1, V domains shown)
VH: B25 VH
VL: B25 VL
B27: F(ab')2 complex #42 (protein)
VH: B25 VH
VL: B25 VL
B28: F(ab')2 complex #9 (protein)
VH: B25 VH
VL: B25 VL

Where a chain is given by its changes, count along the chain named. Results are given in words; binding and its absence hold for the method and conditions named. A result given as binding can be weak or reduced; the word gives no strength.

The target of the assay is CAPRIN-1 protein. Description: ELISA. (In general: ELISA stands for enzyme-linked immunosorbent assay.)
For the molecule B1, the binding entry is on record as “binds”.

As to B2, the binding result is listed as “binds”.

As for B3, the binding result was “binds”.

Turning to B4, the binding entry is “binds”.

For B5, the binding entry was “binds”.

Turning to B6, the binding result is recorded as “binds”.

As for B7, the binding result is “binds”.

On to B8, for which the binding entry is “binds”.

As for B9, the binding result is on record as “binds”.

For the molecule B10, the binding entry is “binds”.

B11: the binding result is listed as “binds”.

Consider B12, for which the binding entry is given as “binds”.

Regarding B13, the binding result is given as “binds”.

Consider B14, for which the binding result was “binds”.

For B15, the binding entry is “binds”.

In the case of B16, the binding result is “binds”.

In the case of B17, the binding result was “binds”.

In the case of B18, the binding entry is recorded as “binds”.

As to B19, the binding entry was “binds”.

In the case of B20, the binding result is given as “binds”.

B21: the binding entry is reported as “binds”.

Turning to B22, the binding entry was “binds”.

In the case of B23, the binding result is “binds”.

On to B24, for which the binding result is listed as “binds”.

As to B25, the binding result is “binds”.

On to B26, for which the binding result is on record as “binds”.

In the case of B27, the binding entry is “binds”.

Take B28: the binding result is recorded as “binds”.

The values above are taken from patent EP4778539A1.
